Laboratory results as given in PubChem BioAssay AID540276 (National Center for Advancing Translational Sciences (NCATS), 2011).
In all, about 300,000 compounds went through this assay and about 5,400 (1.8%) were called active. This list was built around the results that the source calls inconclusive (neither active nor inactive); the mix of calls is not that of the screen. Calls come from the whole dose curve; tested in HEK293 cells. Where the call is inconclusive, the potency comes from a doubtful curve fit.

Assay: qHTS for inhibitors of binding or entry into cells for Marburg Virus
Conditions: Marburg virus pseudotyped entry inhibition, cell reporter; activity change, negative = inhibition: at 37.8 µM (top of the series) unless noted
% is set by controls: 0 for no effect and ±100 for the full control effect; potency is the fitted concentration of half-maximal effect.

| Compound | Potency | activity change, negative = inhibition |
| --- | --- | --- |
| CC1(C)CC(=O)C(N=Nc2cccc([N+](=O)[O-])c2)=C(O)C1 | inconclusive: 15.8 µM [activator, single point] | – |
| COc1ccc(N2CCN(C(=O)CSc3nnnn3-c3ccc4c(c3)OCCO4)CC2)cc1 | – | inactive: -5.69% |
| Cc1ccc(CSCc2nnc(SCC(=O)N3CCN(c4ccccc4)CC3)n2C)cc1 | inconclusive: 12.6 µM [inhibitor, partial curve, poor fit] | – |
| Cc1nc(N2CCC(C)CC2)c2nnn(Cc3ccccc3)c2n1 | – | inactive: -1.29% |
| CCn1cc(CN2CCc3c([nH]c4ccccc34)C2c2cccc(O)c2)c(C)n1 (stereo unspecified) | inconclusive: 35.5 µM [inhibitor, single point] | – |
| CCc1ncc(CN2CCCC(C(=O)Nc3cccc(-c4cccc(C)c4)c3)C2)cn1 (stereo unspecified) | inconclusive: 35.5 µM [inhibitor, single point] | – |
| O=C(NC1CCCC1)C(c1ccncc1)N(C(=O)c1csnn1)C1CCCC1 (stereo unspecified) | inconclusive: 11.2 µM [inhibitor, partial curve, poor fit] | – |
| CC(NS(=O)(=O)c1ccc(OCC(=O)NCc2ccccn2)cc1)c1ccccc1 (stereo unspecified) | inconclusive: 6.31 µM [activator, full curve] | – |
| C/C(=N/NC(=O)c1cc(-c2ccc(Cl)s2)[nH]n1)c1ccco1 | – | inactive: 12.4% [at 46.1 µM] |
| CC(=O)O[C@H]1CC2(C)[C@@H](C[C@@H](O)[C@H]3[C@@]4(C)CC[C@@H](O)[C@@H](C)[C@@H]4CC[C@@]32C)C1=C(CCC=C(C)C)C(=O)O (stereo partly specified) | – | inconclusive: -1.52% [inhibitor] |
| COc1cccc(C(=O)NN=C2CCCC2)c1 | – | inactive: 22.1% [at 46.1 µM] |
| C/C(=N\N1CCN(C)CC1)c1ccc(Cl)c(Cl)c1 | inconclusive: 0.316 µM [activator, partial curve, poor fit] | – |
| Cc1ccc(CN(Cc2ccco2)C(=O)c2cccc(C)c2)cc1 | – | inactive: 12.5% [at 46.1 µM] |
| COC(=O)c1ccc(C2C(Oc3ccccc3C)C(=O)N2CCc2ccc(OC)c(OC)c2)cc1 (stereo unspecified) | inconclusive: 17.8 µM [inhibitor, single point] | – |
| CC(C)COc1ccc(Nc2ncnc3ccc(Br)cc23)cc1 | – | inactive: 0.673% [at 46.1 µM] |
| CC(OC(=O)c1cc2sccc2n1C)C(=O)NCc1cccs1 (stereo unspecified) | inconclusive: 20.6 µM [inhibitor, single point] | – |
| Cc1ccc(C2=NN(S(C)(=O)=O)C(c3cccs3)C2)cc1 (stereo unspecified) | inconclusive: 4.47 µM [activator, partial curve, poor fit] | – |
| O=C(Nc1cccnc1)C1COc2ccccc2O1 (stereo unspecified) | – | inactive: 8.32% |
| Cc1ccc(C)c(S(=O)(=O)Nc2cc3c4c(c2)CCC(=O)N4CCC3)c1 | – | inactive: -8.96% [at 46.1 µM] |
| O=C(/C=C/Sc1ncn[nH]1)c1ccc(Cl)cc1 | inconclusive: 15.8 µM [inhibitor, single point] | – |
| O=C(CSc1ncn[nH]1)Nc1ccc([N+](=O)[O-])cc1Br | inconclusive: 1.12 µM [inhibitor, full curve, poor fit] | – |
| COc1ccc(OCC(=O)Nc2ccccc2O)cc1 | – | inactive: 13.3% |
| CCOC(=O)c1oc2cc(O)ccc2c(=O)c1-c1ccccc1OC | – | inactive: 6.43% |
| COc1ccc2c(c1)-c1nc(/N=C/c3ccc(O)c(OC)c3)sc1CC2 | inconclusive: 3.55 µM [activator, single point] | – |

| Compound | Potency | activity change, negative = inhibition |
| --- | --- | --- |
| CN(NC(=O)Nc1ccc(Cl)cc1)c1ncc(C(F)(F)F)cc1Cl | inconclusive: 29.1 µM [inhibitor, partial curve, poor fit] | – |
| CC(C)N(Cc1nccn1C)C(=O)c1ccc2oc(CCCc3ccccc3)nc2c1 | inconclusive: 35.5 µM [inhibitor, single point] | – |
| c1ccc(-c2nnc(SCC3CCCCO3)nc2-c2ccccc2)cc1 (stereo unspecified) | inconclusive: 2.51 µM [inhibitor, full curve, poor fit] | – |
| CC(=O)[C@@H]1[C@@H](C(=O)c2ccccc2)[C@]2(C(=O)Nc3ccccc32)[C@H]2C=Cc3cc(F)ccc3N12 | inconclusive: 20 µM [inhibitor, single point] | – |
| CCOC(=O)C1=C(CN2CCc3ccccc32)NC(=O)NC1c1cc(C)ccc1C (stereo unspecified) | inconclusive: 29.1 µM [inhibitor, single point] | – |
| Cc1ccc(N2C(=O)CS(=O)(=O)C23C(=O)N(Cc2ccccc2F)c2ccccc23)cc1Cl (stereo unspecified) | inconclusive: 10 µM [inhibitor, partial curve, poor fit] | – |
| O=C(Nc1ccncc1)c1cc(-c2cccc(Br)c2)nc2ccccc12 | inconclusive: 10 µM [inhibitor, partial curve, poor fit] | – |
| O=C(Nc1ccc2oc(-c3ccccc3)nc2c1)C1CCCO1 (stereo unspecified) | inconclusive: 3.55 µM [activator, partial curve] | – |
| CC(C)c1nc2n[nH]c(N)c2c2c1CSC(C)(C)C2 | inconclusive: 25.1 µM [inhibitor, partial curve, poor fit] | – |
| COc1ccc2c(c1)c(=O)c(C(=O)c1ccc(C)cc1)cn2Cc1ccccc1F | active: 11.2 µM | – |
| O=C(NC1CCSC1=O)c1ccc(Oc2ccc(F)cc2)nc1 (stereo unspecified) | inconclusive: 0.631 µM [activator, partial curve, poor fit] | – |
| O=C(NCCc1ccccc1)C1CCN(S(=O)(=O)c2ccccc2)CC1 | inconclusive: 18.3 µM [activator, single point] | – |
| Cc1cc(C)cc(NC(N)=S)c1 | – | inactive: 22.5% |
| O=C(CSc1nc(-c2ccccc2Cl)ns1)c1ccc(Cl)cc1 | – | inactive: -20.1% |
| Cc1ccc(-c2ccc(C(=O)O)o2)cc1Cl | – | inactive: 8.16% [at 46.1 µM] |
| O=S(=O)(NCC1NCCc2ccccc21)c1ccccc1 (stereo unspecified) | inconclusive: 20 µM [inhibitor, partial curve, poor fit] | – |
| CC(=O)c1c(C)[nH]c(C(=O)OCC(=O)Nc2cc(C)on2)c1C | – | inactive: -15.1% |
| COC(=O)c1ccc(Cl)cc1NC(=O)Nc1nnc(N(C)Cc2ccccc2)s1 | – | inactive: -1.4% [at 46.1 µM] |
| COc1ccc(C2c3c(-c4ccccc4O)n[nH]c3C(=O)N2CCc2ccccc2)cc1 (stereo unspecified) | inconclusive: 35.5 µM [inhibitor, single point] | – |
| CN(C)C(CNc1ccc(S(C)(=O)=O)cc1[N+](=O)[O-])c1ccccc1 (stereo unspecified) | inconclusive: 14.1 µM [inhibitor, single point] | – |
| COc1cc(OC)cc(-c2nc3ccccc3c(=O)n2OC(=O)c2ccccc2C)c1 | inconclusive: 32.6 µM [inhibitor, partial curve, poor fit] | – |
| CC(Cc1cccs1)NC(=O)Nc1ccc(F)cc1 (stereo unspecified) | – | inactive: -2.54% |
| CCCCOc1ccc(NC(=O)CN2CCN(C(=O)OCC)CC2)cc1 | – | inactive: 0.113% |
| C=CCOc1ccc(CNc2nccs2)cc1OC | – | inactive: 8.35% |

Quoted from the listing:
COc1ccc(N2CCN(C(=O)CSc3nnnn3-c3ccc4c(c3)OCCO4)CC2)cc1 – activity change, negative = inhibition: inactive: -5.69%
COc1ccc2c(c1)-c1nc(/N=C/c3ccc(O)c(OC)c3)sc1CC2 – Potency: inconclusive: 3.55 µM [activator, single point]
COc1ccc(C2c3c(-c4ccccc4O)n[nH]c3C(=O)N2CCc2ccccc2)cc1 (stereo unspecified) – Potency: inconclusive: 35.5 µM [inhibitor, single point]
CC(NS(=O)(=O)c1ccc(OCC(=O)NCc2ccccn2)cc1)c1ccccc1 (stereo unspecified) – Potency: inconclusive: 6.31 µM [activator, full curve]
O=C(CSc1ncn[nH]1)Nc1ccc([N+](=O)[O-])cc1Br – Potency: inconclusive: 1.12 µM [inhibitor, full curve, poor fit]
Cc1ccc(-c2ccc(C(=O)O)o2)cc1Cl – activity change, negative = inhibition: inactive: 8.16% [at 46.1 µM]

Next part:

| Compound | Potency | activity change, negative = inhibition |
| --- | --- | --- |
| COc1ccccc1C[C@@H](Cc1nc2ccccc2[nH]1)c1nc2ccccc2[nH]1 | inconclusive: 23.1 µM [inhibitor, single point] | – |
| Cc1sccc1/C=N/NC(=O)c1cccc2ccccc12 | – | inactive: 17.2% |
| CCC/C=C(\CCC)C(NS(=O)(=O)c1cccc2cccnc12)c1ccc(C(=O)OC)cc1 (stereo unspecified) | inconclusive: 29.1 µM [inhibitor, single point] | – |
| CCN1CCCC1CNC(=O)c1ccc(N2CCCC2=O)cc1 (stereo unspecified) | – | inactive: 4.38% [at 46.1 µM] |
| N#C/C(=C\C=C\c1ccccc1[N+](=O)[O-])C(=O)NC1CCCCC1 | inconclusive: 10 µM [inhibitor, partial curve, poor fit] | – |
| CNC(=O)CN1C(=O)NC2(CCc3ccccc3C2)C1=O (stereo unspecified) | inconclusive: 3.55 µM [inhibitor, single point] | – |
| O=C1OCC(O)=C1Cc1ccccc1 | inconclusive: 0.112 µM [inhibitor, full curve, poor fit] | – |
| O=C(O)CS(=O)(=O)CC(=O)O | inconclusive: 12.6 µM [inhibitor, partial curve, poor fit] | – |
| Cc1ccccc1NC(=O)CSc1nc(Nc2ccccc2)nc(N2CCOCC2)n1 | inconclusive: 14.1 µM [inhibitor, partial curve, poor fit] | – |
| C=CCn1c(COc2cccc(C)c2C)nnc1SCC(=O)N1CCN(c2ccccc2)CC1 | inconclusive: 35.5 µM [inhibitor, single point] | – |
| CCOC(=O)CN1C(=O)[C@]2(OCCC=C[C@@H]2C)c2c(Br)cccc21 | – | inactive: -20.1% [at 14.2 µM] |
| C/C(=N\NS(=O)(=O)c1ccc(Cl)cc1)c1ccc(O)cc1 | inconclusive: 32.6 µM [activator, single point] | – |
| COc1ccccc1-c1c(C#N)c(N)nc2c1CCc1ccccc1-2 | inconclusive: 4.11 µM [inhibitor, full curve, poor fit] | – |
| COc1ccc(CC(=O)O/N=C(\N)Cc2cccc3ccccc23)cc1 | – | inactive: 17.8% |
| O=C(Oc1coc(CSc2ncccn2)cc1=O)c1cccc([N+](=O)[O-])c1 | inconclusive: 1.12 µM [inhibitor, partial curve, poor fit] | – |
| CN(C(=O)c1ccco1)c1nnc(-c2ccc(F)cc2)s1 | – | inactive: -11.4% [at 46.1 µM] |
| CC1CCc2nc(NC(=O)c3ccco3)sc2C1 (stereo unspecified) | active: 1.26 µM | – |
| O=C(N/N=C/c1cc(Br)cc(Br)c1O)c1ccncc1 | inconclusive: 3.16 µM [inhibitor, full curve, poor fit] | – |
| COc1ccc(OC)c(S(=O)(=O)Nc2ccc3oc(C)c(C(C)=O)c3c2)c1 | – | inactive: -6.29% [at 46.1 µM] |
| CCOc1ccc(/C(O)=C2/C(=O)C(=O)N(CCN(C)C)[C@H]2c2ccccc2)cc1Cl | inconclusive: 35.5 µM [activator, partial curve, poor fit] | – |
| O=C(NCC(c1ccco1)N1CCN(c2ccc(F)cc2)CC1)C(=O)NC1CCCCC1 (stereo unspecified) | – | inactive: 6.21% |
| C=C(C)CO[C@H]1C=C[C@@H](c2ccccc2)O[C@H]1CO | – | inactive: 2.34% [at 14.2 µM] |
| C=C(C(C)=O)C(O)/C=C/c1ccco1 (stereo unspecified) | – | inactive: 3% [at 14.2 µM] |
